The experiment concerns the target Ub-Lys-TAMRA (UniProt P0CG48 1-76, Ub is isopeptide-linked to a TAMRA-labeled Lys-Gly dipeptide (modification at the Ub C-terminus)). The experiment can be described thus: fluorescence polarisation. In general terms: Fluorescence polarisation rises when a labelled molecule tumbles more slowly, as on binding a larger partner.

B1: RNF114 MUBD construct (residues 137–228) (domain or fragment)
chain: NRYTFPCPYCPEKNFDQEGLVEHCKLFHSTDTKSVVCPICASMPWGDPNYRSANFREHIQRRHRFSYDTFVDYDVDEEDMMNQVLQRSIIDQ
In the case of B1, the binding result is “binds”.

The values above are taken from publication PMC12132378 (bioRxiv, 2025).
